Reference: publication PMC7895950
No constants are given. Whether binding was seen depends on the method and setting. In cells and extracts the contact can be indirect. A yes stands for co-enrichment or nearness to the bait. Other partners may have been found.

Amino acid sequences for entries named in this document (tags omitted).
UniProt Q99496: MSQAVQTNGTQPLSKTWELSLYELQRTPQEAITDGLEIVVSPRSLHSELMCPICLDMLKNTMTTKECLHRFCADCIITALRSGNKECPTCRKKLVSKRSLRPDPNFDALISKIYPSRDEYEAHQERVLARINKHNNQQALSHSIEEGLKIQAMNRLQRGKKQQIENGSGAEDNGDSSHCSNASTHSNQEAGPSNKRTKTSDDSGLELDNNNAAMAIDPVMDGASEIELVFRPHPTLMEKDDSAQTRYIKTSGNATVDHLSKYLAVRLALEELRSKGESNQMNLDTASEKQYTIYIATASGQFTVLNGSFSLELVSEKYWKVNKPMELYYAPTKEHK
UniProt O00571: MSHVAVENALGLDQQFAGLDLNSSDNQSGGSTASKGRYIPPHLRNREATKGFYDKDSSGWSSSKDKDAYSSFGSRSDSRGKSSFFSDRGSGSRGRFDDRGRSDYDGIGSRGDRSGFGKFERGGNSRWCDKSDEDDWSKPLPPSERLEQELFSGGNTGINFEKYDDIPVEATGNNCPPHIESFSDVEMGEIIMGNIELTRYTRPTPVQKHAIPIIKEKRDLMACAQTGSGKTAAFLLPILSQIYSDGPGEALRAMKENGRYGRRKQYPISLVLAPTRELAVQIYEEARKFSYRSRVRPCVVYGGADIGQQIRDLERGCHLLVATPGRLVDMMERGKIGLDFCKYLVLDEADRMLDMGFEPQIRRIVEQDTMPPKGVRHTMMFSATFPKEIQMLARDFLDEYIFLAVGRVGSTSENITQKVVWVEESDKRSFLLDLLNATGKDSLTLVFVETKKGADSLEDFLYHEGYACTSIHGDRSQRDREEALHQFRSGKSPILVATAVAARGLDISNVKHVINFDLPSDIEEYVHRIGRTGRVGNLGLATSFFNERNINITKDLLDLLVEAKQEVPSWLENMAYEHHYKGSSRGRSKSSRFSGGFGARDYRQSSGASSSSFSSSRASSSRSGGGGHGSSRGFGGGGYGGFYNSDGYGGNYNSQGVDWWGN
UniProt P17844: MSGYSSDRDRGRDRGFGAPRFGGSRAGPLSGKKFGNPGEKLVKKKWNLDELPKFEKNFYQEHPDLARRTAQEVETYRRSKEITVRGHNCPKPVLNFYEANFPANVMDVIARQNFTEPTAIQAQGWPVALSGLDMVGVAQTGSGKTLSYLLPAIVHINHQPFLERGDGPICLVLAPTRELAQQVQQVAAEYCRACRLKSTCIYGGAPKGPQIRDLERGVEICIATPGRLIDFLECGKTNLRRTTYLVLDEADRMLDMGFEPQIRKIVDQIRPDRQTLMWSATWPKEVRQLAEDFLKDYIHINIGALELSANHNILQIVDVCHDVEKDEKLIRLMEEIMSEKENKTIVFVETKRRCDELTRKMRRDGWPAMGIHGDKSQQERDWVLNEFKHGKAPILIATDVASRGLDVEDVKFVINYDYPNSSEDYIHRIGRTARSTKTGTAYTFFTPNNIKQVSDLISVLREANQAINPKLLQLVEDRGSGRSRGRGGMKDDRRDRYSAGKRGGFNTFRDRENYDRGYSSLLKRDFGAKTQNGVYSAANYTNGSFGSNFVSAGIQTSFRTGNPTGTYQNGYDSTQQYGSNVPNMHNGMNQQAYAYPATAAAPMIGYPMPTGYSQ

Target: Ring1b (endogenous, breast cell lines) (human (endogenous in MCF-10A, MCF-7, MDA-MB-231)) (UniProt Q99496)
Experiment: affinity purification with mass spectrometry; lysates of multiple breast cell lines, IP with anti-Ring1b antibody, SDS-PAGE, silver staining, LC-MS/MS; RIPA lysates

| binding | Substance |
| --- | --- |
| binds | DDX3X (endogenous, breast cell lines) (from UniProt O00571 1-662) |
| binds | DDX5 (endogenous, breast cell lines) (from UniProt P17844 1-614) |
